Data on one substance can be found in paper PMC12745349.

Sequences of proteins named here, by UniProt entry; tags and fusion partners are left off.
UniProt P19474: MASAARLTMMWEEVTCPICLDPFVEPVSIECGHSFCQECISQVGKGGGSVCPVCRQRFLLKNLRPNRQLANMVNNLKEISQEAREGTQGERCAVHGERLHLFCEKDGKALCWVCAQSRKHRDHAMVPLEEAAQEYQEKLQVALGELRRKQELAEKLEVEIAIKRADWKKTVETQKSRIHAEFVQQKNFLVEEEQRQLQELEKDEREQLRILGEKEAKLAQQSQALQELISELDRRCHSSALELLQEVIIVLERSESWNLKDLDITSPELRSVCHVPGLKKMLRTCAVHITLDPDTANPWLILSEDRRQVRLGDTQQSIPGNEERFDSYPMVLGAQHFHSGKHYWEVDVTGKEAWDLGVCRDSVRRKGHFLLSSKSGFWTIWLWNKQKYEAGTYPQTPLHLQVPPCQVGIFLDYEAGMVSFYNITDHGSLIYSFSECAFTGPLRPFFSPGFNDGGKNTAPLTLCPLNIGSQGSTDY
UniProt Q9HAU4: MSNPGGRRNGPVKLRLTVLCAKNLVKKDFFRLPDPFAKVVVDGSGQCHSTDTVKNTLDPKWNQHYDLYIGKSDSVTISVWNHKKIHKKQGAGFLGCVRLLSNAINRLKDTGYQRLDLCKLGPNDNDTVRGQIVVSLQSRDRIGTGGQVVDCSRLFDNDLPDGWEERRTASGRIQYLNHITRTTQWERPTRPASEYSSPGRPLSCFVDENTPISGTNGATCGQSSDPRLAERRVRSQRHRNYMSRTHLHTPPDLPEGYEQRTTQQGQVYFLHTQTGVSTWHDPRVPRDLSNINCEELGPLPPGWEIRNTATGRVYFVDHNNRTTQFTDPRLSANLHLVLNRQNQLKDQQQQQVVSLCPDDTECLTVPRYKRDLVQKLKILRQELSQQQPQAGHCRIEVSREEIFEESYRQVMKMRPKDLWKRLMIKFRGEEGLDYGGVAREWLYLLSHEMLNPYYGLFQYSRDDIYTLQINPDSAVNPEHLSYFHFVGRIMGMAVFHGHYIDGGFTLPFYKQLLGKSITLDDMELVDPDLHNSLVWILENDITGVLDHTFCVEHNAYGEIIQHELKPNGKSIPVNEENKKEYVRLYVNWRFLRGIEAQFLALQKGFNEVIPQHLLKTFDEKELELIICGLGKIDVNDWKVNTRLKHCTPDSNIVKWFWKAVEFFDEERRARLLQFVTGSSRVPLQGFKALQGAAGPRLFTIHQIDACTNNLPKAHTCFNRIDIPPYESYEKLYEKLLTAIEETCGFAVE

No constants are given. Whether binding was seen depends on the method and setting. Binding seen in cells or lysates may run through a third protein. Some entries that bind do so weakly or less than the wild type.

The target in this test is Tripartite Motif Containing 21 (TRIM21) (human (endogenous in human cardiac fibroblasts)) (UniProt P19474). Nature of the test: co-IP; endogenous proteins in human cardiac fibroblast lysates (RIPA buffer); primary antibody overnight at 4 °C, protein G Sepharose beads, PBS washes, immunoblot; also after TGF-β treatment of the cells. A general note: A western blot detects proteins with antibodies after separation by electrophoresis.

As for “SMAD Specific E3 Ubiquitin Protein Ligase 2 (Smurf2) (from UniProt Q9HAU4 1-748)”, the binding entry was “binds”.
